Reference: article PMC9299836 (eLife, 2022)
Values joined by “and” are separate entries in the source; they are usually repeats but may differ in a detail not shown here. Equal values may be shown once. Further values from the same series stand in other lists.

Protein sequences, listed by entry. Tags and fused reporters are not part of them. Residues count along the entry.
UniProt Q14BI2, 19-872: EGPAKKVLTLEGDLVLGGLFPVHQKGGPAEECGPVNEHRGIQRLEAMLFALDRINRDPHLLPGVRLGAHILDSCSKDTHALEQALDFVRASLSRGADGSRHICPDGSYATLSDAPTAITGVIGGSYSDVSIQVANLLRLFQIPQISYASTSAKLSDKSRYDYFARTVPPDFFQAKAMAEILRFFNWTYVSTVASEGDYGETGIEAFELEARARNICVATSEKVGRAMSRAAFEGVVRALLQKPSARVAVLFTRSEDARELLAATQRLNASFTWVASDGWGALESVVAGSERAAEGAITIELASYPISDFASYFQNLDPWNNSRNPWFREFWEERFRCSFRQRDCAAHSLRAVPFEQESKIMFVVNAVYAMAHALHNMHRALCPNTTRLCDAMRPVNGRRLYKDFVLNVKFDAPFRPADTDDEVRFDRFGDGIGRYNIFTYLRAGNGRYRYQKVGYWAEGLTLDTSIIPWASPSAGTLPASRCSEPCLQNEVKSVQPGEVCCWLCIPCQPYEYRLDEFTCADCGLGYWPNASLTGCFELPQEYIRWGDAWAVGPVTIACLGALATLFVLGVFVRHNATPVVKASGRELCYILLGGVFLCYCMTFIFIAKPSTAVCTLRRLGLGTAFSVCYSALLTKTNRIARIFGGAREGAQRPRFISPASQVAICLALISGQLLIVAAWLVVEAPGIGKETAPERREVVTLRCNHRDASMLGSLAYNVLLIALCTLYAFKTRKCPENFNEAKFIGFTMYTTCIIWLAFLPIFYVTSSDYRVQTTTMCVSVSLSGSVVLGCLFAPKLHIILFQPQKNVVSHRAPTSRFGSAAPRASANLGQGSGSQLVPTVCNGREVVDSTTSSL
UniProt Q14BI2, 19-872 A548F: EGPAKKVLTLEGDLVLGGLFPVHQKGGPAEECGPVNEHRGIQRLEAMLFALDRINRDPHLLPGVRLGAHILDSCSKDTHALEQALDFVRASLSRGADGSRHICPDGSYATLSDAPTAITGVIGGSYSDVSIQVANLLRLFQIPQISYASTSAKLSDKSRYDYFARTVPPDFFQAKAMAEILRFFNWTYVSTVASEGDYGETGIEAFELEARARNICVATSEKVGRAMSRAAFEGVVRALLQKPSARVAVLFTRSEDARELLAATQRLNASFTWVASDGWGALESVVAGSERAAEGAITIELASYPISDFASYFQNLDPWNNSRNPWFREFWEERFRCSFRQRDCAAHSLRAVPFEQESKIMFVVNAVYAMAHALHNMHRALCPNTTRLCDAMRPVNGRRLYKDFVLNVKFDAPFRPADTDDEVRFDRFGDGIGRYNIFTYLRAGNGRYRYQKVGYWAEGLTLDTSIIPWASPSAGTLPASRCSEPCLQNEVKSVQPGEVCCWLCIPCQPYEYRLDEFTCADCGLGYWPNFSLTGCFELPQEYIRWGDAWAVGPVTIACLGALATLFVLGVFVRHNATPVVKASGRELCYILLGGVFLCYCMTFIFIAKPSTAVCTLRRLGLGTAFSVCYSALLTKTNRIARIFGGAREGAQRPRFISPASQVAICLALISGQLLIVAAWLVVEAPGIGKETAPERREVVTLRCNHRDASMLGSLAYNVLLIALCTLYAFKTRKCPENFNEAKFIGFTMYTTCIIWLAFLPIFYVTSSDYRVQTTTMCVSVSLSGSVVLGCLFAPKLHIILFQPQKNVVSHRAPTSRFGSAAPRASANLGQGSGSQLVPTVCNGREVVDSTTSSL

Assays:
mGluR2 [1] = target: mGluR2 (Mus musculus, UniProt Q14BI2); assay: Live-cell FRET, SNAP-m2 (VFT domain) inter-subunit sensor in HEK293T cells; conditions: Glutamate + 10μM BINA, individual cells, normalized to 1mM glutamate;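 note: apparent FRET efficiency from whole-membrane ROIs of single cells, corrected for donor bleed-through and background, ΔFRET as treatment minus pretreatment signal, recorded at room temperature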
mGluR2 [2] = target: mGluR2 (Mus musculus, UniProt Q14BI2, A548F); assay: smFRET of azi-CRD: cross-correlation of donor and acceptor intensities (CRD dynamics) and HMM transition density plots; conditions: 1000μM Glutamate + 10μM BINA, N=3;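 note: single detergent-solubilized receptors captured on antibody-coated flow cells via C-terminal FLAG-tag, imaged by smFRET, donor and acceptor intensity traces from three independent biological replicates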

## Cc1c(OCc2cccc(-c3ccc(C(=O)O)cc3)c2)cc2c(c1C)C(=O)C(C1CCCC1)C2 (centres unmarked) [BINA]
mGluR2 [1]; log[Glutamate] (M) -3
  SNAP-m2 FRET response (PAM DRC): -1.024
mGluR2 [1]; log[Glutamate] (M) -4.1549
  SNAP-m2 FRET response (PAM DRC): -1.078 and -1.045 and -0.9953 and -1.038 and -1.042 and -1.012 and -0.992 and -1.05 and -1.084 and -1.089 and -1.061 and -1.027 and -1.077 and -1.051 and -1.0704 and -1.116 and -1.006 and -1.041 and -0.987 and -1.001 and -1.033 and -1.036 and -1.07
mGluR2 [1]; log[Glutamate] (M) -4.52288
  SNAP-m2 FRET response (PAM DRC): -1.117 and -1.075 and -1.049 and -1.05 and -1.097 and -1.081 and -0.9919 and -1.1139 and -1.102 and -1.138 and -1.162 and -1.165 and -1.095 and -1.073 and -0.9523 and -1.128 and -0.9709 and -1.015 and -0.9848 and -1.02 and -1.041 and -1.012 and -1.072
mGluR2 [1]; log[Glutamate] (M) -5
  SNAP-m2 FRET response (PAM DRC): -0.9989 and -1.091 (2×) and -1.064 and -1.113 and -1.138 (2×) and -0.9661 and -1.069 and -1.15 and -1.145 and -0.9381 and -1.065 and -1.143 and -1.025 and -1.187 and -0.6002 and -0.8738 and -0.9165 and -0.9455 and -1.092 and -1.016 and -1.032
mGluR2 [1]; log[Glutamate] (M) -5.39794
  SNAP-m2 FRET response (PAM DRC): -0.7022 and -1.046 and -0.9826 and -1.017 and -1.031 and -1.079 and -0.896 and -0.941 and -1.074 and -1.129 and -1.11 and -0.5929 and -1.041 and -1.088 and -0.9891 and -1.102 and -0.3001 and -0.5862 and -0.6772 and -0.7483 and -1.068 and -0.8917 and -1.048
mGluR2 [1]; log[Glutamate] (M) -5.82391
  SNAP-m2 FRET response (PAM DRC): -0.8762 and -0.701 and -0.8445
mGluR2 [2]; Time 0 s
  Cross Correlation, Mean: -0.235
mGluR2 [2]; Time 0.05 s
  Cross Correlation, Mean: -0.1261
mGluR2 [2]; Time 0.1 s
  Cross Correlation, Mean: -0.1028
mGluR2 [2]; Time 0.15 s
  Cross Correlation, Mean: -0.08554
mGluR2 [2]; Time 2.2 s
  Cross Correlation, Mean: -0.02009
mGluR2 [2]; Time 2.25 s
  Cross Correlation, Mean: -0.01896
mGluR2 [2]; Time 2.3 s
  Cross Correlation, Mean: -0.01579
mGluR2 [2]; Time 2.35 s
  Cross Correlation, Mean: -0.01431
mGluR2 [2]; Time 2.4 s
  Cross Correlation, Mean: -0.01205
mGluR2 [2]; Time 2.45 s
  Cross Correlation, Mean: -0.01717
mGluR2 [2]; Time 2.5 s
  Cross Correlation, Mean: -0.01048
mGluR2 [2]; Time 2.55 s
  Cross Correlation, Mean: -0.02038
mGluR2 [2]; Time 2.6 s
  Cross Correlation, Mean: -0.0117
mGluR2 [2]; Time 2.65 s
  Cross Correlation, Mean: -0.01182
mGluR2 [2]; Time 2.7 s
  Cross Correlation, Mean: -0.01456
mGluR2 [2]; Time 2.75 s
  Cross Correlation, Mean: -0.01307
mGluR2 [2]; Time 2.8 s
  Cross Correlation, Mean: -0.01003
mGluR2 [2]; Time 2.85 s
  Cross Correlation, Mean: -0.01096
mGluR2 [2]; Time 2.9 s
  Cross Correlation, Mean: -0.01497
mGluR2 [2]; Time 2.95 s
  Cross Correlation, Mean: -0.01462
